From the supplement of paper PMC12823440, “Inhibitors supercharge kinase turnover through native proteolytic circuits” (Nature, 2025)
Structures can show the parent of a compound that is named as a salt. The list shows a part of the results. Hit calls seldom repeat between salt and free forms of one compound.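 Kinases were expressed as nanoluciferase fusions in K562 cells and luminescence was read every 4 h between 2 and 18 h as percent of control, DMSO set to 100% and a positive control to 0%. A time point counts as decreased when the signal drops significantly (2 sigma). The hit call is the authors' own, does not follow from the count of time points alone, and its rule is not shown.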

Chains of the proteins cited; added tags and fusions are not shown. Lines headed by an entry give the natural chain unless they say otherwise; changes in a name come on top.
UniProt Q15208: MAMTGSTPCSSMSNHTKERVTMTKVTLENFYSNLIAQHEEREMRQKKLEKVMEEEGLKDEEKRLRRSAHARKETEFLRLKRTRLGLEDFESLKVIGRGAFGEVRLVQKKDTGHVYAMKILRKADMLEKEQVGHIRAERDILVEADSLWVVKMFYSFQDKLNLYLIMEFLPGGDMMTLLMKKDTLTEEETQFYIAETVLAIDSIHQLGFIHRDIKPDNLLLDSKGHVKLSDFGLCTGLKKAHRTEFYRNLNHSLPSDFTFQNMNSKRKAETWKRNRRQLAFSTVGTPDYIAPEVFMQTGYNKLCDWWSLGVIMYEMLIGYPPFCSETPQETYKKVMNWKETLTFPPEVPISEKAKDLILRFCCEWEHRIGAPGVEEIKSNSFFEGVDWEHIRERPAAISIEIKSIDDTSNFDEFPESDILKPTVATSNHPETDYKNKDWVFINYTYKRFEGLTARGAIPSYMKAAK
UniProt P43403: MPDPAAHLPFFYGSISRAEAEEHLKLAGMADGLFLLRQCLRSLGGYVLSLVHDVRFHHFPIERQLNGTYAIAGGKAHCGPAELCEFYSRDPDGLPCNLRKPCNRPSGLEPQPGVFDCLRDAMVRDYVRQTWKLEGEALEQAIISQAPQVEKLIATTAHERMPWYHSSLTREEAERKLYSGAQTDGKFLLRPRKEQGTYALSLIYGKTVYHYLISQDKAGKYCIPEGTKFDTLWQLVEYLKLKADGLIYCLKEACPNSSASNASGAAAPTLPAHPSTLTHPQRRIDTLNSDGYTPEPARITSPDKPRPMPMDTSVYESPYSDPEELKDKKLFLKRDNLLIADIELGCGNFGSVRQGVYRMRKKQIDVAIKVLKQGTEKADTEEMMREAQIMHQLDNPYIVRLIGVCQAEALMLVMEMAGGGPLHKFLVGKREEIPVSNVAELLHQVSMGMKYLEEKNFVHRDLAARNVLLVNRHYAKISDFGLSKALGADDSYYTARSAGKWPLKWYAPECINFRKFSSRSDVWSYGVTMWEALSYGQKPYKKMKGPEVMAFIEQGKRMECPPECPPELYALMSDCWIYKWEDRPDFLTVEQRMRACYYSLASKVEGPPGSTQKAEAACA
UniProt P00519, whole entry: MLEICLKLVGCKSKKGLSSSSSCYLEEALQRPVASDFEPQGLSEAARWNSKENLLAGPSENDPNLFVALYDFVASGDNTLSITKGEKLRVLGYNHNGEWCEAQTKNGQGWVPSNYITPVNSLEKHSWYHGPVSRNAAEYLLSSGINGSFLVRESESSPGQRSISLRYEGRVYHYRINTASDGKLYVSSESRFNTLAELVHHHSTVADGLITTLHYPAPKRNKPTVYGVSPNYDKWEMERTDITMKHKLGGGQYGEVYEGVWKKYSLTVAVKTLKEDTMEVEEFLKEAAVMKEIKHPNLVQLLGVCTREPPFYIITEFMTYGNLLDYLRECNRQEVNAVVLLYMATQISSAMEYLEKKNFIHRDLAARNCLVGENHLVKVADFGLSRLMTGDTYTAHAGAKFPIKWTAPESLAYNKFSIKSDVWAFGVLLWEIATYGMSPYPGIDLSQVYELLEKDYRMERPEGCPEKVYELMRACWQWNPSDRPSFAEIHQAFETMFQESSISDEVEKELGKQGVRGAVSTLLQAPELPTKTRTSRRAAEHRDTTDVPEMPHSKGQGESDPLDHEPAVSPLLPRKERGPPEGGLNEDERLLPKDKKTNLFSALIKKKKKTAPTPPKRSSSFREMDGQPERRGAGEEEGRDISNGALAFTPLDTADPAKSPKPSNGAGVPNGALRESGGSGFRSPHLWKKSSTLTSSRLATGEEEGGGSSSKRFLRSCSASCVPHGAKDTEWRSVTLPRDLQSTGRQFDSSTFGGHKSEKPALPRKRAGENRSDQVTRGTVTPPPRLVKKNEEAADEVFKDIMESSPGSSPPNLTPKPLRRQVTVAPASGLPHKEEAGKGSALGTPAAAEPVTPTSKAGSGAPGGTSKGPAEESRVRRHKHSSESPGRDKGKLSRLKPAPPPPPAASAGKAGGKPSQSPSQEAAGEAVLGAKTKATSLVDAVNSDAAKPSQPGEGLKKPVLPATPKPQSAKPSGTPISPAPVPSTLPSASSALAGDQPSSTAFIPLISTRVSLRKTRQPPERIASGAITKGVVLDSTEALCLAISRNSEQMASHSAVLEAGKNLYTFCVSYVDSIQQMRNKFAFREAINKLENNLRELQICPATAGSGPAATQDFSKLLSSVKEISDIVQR
UniProt P31749: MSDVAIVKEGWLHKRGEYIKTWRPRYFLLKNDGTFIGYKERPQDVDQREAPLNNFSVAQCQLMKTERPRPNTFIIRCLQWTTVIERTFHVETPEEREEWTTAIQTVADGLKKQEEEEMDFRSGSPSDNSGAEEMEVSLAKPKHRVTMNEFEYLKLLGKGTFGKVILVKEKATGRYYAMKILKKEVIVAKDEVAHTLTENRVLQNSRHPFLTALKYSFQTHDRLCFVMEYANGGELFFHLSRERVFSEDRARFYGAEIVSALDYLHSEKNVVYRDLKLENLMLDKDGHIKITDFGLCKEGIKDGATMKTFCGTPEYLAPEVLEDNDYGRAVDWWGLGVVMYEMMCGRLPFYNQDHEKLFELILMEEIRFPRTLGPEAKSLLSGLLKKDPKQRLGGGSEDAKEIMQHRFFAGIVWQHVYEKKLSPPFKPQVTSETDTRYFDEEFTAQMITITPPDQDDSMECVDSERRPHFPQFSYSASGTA
UniProt P10398: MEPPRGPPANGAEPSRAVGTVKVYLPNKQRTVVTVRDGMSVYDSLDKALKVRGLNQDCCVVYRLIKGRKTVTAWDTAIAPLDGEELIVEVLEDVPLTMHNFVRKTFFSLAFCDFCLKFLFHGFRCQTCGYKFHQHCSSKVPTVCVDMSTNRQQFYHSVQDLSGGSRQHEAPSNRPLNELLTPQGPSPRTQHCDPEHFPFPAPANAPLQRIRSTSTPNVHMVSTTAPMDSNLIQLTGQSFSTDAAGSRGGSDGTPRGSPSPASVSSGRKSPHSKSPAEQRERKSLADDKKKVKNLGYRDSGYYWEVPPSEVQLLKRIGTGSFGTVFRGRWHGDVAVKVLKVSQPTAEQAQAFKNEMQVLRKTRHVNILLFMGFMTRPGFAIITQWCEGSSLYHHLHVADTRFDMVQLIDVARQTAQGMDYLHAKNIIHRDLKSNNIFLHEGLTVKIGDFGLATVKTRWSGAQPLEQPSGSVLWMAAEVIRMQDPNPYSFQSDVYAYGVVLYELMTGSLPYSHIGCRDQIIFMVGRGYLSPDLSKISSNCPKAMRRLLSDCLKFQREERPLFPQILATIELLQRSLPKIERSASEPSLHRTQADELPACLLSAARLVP
UniProt O14965: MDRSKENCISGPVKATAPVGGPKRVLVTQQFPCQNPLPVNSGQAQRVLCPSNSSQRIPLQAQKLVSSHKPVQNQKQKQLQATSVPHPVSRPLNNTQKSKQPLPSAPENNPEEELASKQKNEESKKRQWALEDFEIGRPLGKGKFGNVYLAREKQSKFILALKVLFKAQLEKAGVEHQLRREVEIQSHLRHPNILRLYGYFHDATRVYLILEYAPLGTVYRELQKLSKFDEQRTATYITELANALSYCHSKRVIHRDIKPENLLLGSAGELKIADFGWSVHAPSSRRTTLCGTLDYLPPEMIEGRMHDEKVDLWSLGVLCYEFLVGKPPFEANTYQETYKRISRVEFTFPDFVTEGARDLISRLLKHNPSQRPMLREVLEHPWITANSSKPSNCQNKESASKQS
UniProt Q96GD4, whole entry: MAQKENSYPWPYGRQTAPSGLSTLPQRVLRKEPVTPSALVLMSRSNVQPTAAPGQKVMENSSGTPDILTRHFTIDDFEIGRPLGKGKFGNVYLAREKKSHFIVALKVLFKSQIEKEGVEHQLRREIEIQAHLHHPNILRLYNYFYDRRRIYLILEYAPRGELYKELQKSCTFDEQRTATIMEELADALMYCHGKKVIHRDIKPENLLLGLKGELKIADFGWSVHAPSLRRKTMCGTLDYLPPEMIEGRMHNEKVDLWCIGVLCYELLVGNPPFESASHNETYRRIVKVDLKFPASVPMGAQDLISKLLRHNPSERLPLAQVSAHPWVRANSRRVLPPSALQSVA
UniProt Q9UQB9: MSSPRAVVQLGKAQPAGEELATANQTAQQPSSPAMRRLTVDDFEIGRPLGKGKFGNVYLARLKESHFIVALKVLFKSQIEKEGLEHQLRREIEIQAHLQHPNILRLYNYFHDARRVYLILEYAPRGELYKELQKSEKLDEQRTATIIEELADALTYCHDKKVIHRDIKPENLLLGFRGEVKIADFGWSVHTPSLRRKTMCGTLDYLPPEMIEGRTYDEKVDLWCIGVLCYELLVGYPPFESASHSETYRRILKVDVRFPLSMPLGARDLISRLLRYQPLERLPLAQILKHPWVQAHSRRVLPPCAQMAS
UniProt P51813: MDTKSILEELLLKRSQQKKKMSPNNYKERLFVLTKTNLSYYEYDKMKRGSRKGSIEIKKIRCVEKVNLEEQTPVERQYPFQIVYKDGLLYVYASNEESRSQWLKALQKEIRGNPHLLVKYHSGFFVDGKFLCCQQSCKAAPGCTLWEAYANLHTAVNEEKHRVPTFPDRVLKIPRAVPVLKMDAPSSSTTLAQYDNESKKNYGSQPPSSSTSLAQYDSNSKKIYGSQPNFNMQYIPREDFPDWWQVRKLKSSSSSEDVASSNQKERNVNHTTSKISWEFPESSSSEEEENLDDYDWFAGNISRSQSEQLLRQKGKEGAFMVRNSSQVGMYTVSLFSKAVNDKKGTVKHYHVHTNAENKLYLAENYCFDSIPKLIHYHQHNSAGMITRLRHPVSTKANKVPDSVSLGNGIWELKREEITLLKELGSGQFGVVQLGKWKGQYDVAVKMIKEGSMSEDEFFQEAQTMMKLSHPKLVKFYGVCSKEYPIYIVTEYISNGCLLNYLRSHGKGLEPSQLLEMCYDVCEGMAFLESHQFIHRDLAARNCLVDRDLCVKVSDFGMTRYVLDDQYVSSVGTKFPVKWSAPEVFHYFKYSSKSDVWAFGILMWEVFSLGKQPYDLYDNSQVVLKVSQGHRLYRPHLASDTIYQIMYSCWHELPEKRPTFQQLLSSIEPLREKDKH
UniProt P15056, whole entry, looked up: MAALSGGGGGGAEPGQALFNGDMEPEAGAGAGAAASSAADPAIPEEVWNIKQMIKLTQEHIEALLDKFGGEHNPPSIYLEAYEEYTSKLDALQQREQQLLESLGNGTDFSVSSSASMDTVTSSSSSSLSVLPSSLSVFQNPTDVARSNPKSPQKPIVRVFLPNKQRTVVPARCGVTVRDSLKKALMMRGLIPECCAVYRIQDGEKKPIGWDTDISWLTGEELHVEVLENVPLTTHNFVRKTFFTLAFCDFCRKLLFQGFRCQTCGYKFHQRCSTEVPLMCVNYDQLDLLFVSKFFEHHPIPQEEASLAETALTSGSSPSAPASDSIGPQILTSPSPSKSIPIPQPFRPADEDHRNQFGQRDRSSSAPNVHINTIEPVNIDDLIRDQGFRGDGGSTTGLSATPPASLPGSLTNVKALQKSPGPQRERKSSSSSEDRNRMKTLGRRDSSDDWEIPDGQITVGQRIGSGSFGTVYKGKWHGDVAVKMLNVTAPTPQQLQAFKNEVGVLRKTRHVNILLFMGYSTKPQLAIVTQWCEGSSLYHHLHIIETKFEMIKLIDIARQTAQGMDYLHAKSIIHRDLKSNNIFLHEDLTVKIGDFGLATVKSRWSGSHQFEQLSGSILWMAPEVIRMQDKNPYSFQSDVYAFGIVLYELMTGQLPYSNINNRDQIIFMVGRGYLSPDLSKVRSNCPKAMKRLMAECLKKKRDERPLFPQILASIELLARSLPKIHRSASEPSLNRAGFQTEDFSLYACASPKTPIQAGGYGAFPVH
UniProt Q06187: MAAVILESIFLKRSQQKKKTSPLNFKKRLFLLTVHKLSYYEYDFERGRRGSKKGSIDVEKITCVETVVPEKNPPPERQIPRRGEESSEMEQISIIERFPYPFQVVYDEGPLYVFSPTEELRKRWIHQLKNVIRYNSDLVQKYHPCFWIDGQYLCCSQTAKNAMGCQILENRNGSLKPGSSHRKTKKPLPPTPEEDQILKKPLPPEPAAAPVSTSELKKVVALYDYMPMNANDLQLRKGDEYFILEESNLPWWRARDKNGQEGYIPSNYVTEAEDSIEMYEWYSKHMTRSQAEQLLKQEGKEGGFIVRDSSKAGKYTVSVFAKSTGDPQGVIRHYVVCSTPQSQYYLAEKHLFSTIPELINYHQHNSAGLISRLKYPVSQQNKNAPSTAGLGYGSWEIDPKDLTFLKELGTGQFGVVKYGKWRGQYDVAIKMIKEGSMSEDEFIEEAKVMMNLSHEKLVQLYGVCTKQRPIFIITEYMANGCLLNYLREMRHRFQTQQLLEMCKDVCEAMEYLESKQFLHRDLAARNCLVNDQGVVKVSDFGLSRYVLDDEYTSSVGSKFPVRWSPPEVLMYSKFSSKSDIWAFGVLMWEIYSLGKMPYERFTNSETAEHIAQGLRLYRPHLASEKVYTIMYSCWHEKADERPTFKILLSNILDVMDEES

Tests used:
Details in all cases: K562; 2-18 h
STK38 = STK38 (UniProt Q15208); test: kinase-Nluc reporter destabilization hit call (1 = scored as downregulated) (binary); higher = compound decreases kinase abundance
SYK = SYK (UniProt P43405); test: as above
TEC = TEC (UniProt P42680); test: as above
TYK2 = TYK2 (UniProt P29597); test: as above
ULK3 = ULK3 (UniProt Q6PHR2); test: as above
YES1 = YES1 (UniProt P07947); test: as above
ZAK = ZAK (UniProt Q9NYL2); test: as above
ZAP70 = ZAP70 (UniProt P43403); test: as above
ABL1 = ABL1 (UniProt P00519); test: number of time points (of 5) at which kinase-Nluc abundance scored as decreased, DMSO-normalised (count); higher = more persistent destabilization
AKT1 = AKT1 (UniProt P31749); test: as above
ALK = ALK (UniProt Q9UM73); test: as above
ARAF = ARAF (UniProt P10398); test: as above
AURKA = AURKA (UniProt O14965); test: as above
AURKB = AURKB (UniProt Q96GD4); test: as above
AURKC = AURKC (UniProt Q9UQB9); test: as above
BLK = BLK (UniProt P51451); test: as above
BMX = BMX (UniProt P51813); test: as above
BRAF = BRAF (UniProt P15056); test: as above
BRAF_V600E = test: as above
BTK = BTK (UniProt Q06187); test: as above

SMILES | kinase-Nluc reporter destabilization hit call (STK38) | kinase-Nluc reporter destabilization hit call (SYK) | kinase-Nluc reporter destabilization hit call (TEC) | kinase-Nluc reporter destabilization hit call (TYK2) | kinase-Nluc reporter destabilization hit call (ULK3) | kinase-Nluc reporter destabilization hit call (YES1) | kinase-Nluc reporter destabilization hit call (ZAK) | kinase-Nluc reporter destabilization hit call (ZAP70) | number of time points (ABL1) | number of time points (AKT1) | number of time points (ALK) | number of time points (ARAF) | number of time points (AURKA) | number of time points (AURKB) | number of time points (AURKC) | number of time points (BLK) | number of time points (BMX) | number of time points (BRAF) | number of time points (BRAF_V600E) | number of time points (BTK)
NC[C@@](O)(c1ccc(Cl)cc1)c1ccc(-c2cn[nH]c2)cc1 (10 µM) | inactive: 0 | inactive: 0 | inactive: 0 | inactive: 0 | inactive: 0 | inactive: 0 | inactive: 0 | inactive: 0 | 0 | 0 | 0 | 0 | 0 | 0 | 0 | 0 | 0 | 0 | 0 | 0
Cc1nc[nH]c1CN1CCN(C(=O)N[C@@H](CC(C)C)C(=O)O)[C@@H](Cc2ccccc2)C1=O (10 µM) | inactive: 0 | inactive: 0 | inactive: 0 | inactive: 0 | inactive: 0 | inactive: 0 | inactive: 0 | inactive: 0 | 0 | 0 | 0 | 0 | 0 | 0 | 0 | 0 | 0 | 0 | 0 | 0
CC(C)n1ncnc1-c1cn2c(n1)-c1ccc(O[C@@H](C)C(N)=O)cc1OCC2 (10 µM) | inactive: 0 | inactive: 0 | inactive: 0 | inactive: 0 | inactive: 0 | inactive: 0 | inactive: 0 | inactive: 0 | 0 | 0 | 0 | 0 | 3 | 0 | 0 | 0 | 0 | 0 | 1 | 0
C=CC(=O)N1CCC[C@@H](n2nc(-c3ccc(Oc4ccccc4)cc3)c3c(N)n[nH]c(=O)c32)C1 [BTK inhibitor 17] (10 µM) | inactive: 0 | inactive: 0 | inactive: 0 | inactive: 0 | inactive: 0 | inactive: 0 | inactive: 0 | inactive: 0 | 0 | 0 | 0 | 0 | 0 | 0 | 0 | 0 | 0 | 0 | 1 | 0
Cc1ccc(NC(=O)Nc2cc(C(F)(F)F)ccc2F)cc1Nc1ccc2c(c1)NC(=O)/C2=C\c1ccc[nH]1 (2.5 µM) | inactive: 0 | inactive: 0 | inactive: 0 | inactive: 0 | inactive: 0 | inactive: 0 | inactive: 0 | inactive: 0 | 0 | 0 | 0 | 0 | 0 | 0 | 0 | 0 | 0 | 0 | 0 | 0
Cn1c2cc([S+](C)[O-])sc2c2cnn(Cc3cccc(N)c3)c(=O)c21 (stereo not given) (2.5 µM) | inactive: 0 | inactive: 0 | inactive: 0 | inactive: 0 | inactive: 0 | inactive: 0 | inactive: 0 | inactive: 0 | 0 | 0 | 0 | 0 | 0 | 0 | 0 | 0 | 0 | 0 | 0 | 0
Cc1cc(C)cc(NC(N)=Nc2ccccc2C(F)(F)F)c1 (10 µM) | inactive: 0 | inactive: 0 | inactive: 0 | inactive: 0 | inactive: 0 | inactive: 0 | inactive: 0 | inactive: 0 | 0 | 0 | 0 | 0 | 0 | 0 | 0 | 0 | 0 | 0 | 0 | 0
CC(C)CCN1c2nc(Nc3cc(F)c(O)c(F)c3)ncc2N(C)C(=O)C1C (stereo not given) (2.5 µM) | inactive: 0 | inactive: 0 | inactive: 0 | inactive: 0 | inactive: 0 | inactive: 0 | inactive: 0 | inactive: 0 | 0 | 0 | 0 | 0 | 0 | 0 | 0 | 0 | 0 | 0 | 0 | 0
COCCOc1ccc2c(c1)ncn2-c1ccc2cccc(N3CCC(N)CC3)c2n1 (10 µM) | inactive: 0 | inactive: 0 | inactive: 0 | inactive: 0 | inactive: 0 | inactive: 0 | inactive: 0 | inactive: 0 | 4 | 0 | 2 | 0 | 3 | 3 | 0 | 2 | 3 | 1 | 4 | 0
O=C(ON=C1c2ccccc2-c2nc3ccccc3nc21)c1ccco1 (2.5 µM) | inactive: 0 | inactive: 0 | inactive: 0 | inactive: 0 | inactive: 0 | inactive: 0 | inactive: 0 | inactive: 0 | 0 | 0 | 0 | 0 | 0 | 0 | 0 | 0 | 0 | 0 | 0 | 0
Nc1ncc(-c2ccnc(Nc3ccncc3)n2)c(CC2CC2)n1 (10 µM) | inactive: 0 | inactive: 0 | inactive: 0 | inactive: 0 | inactive: 0 | inactive: 0 | inactive: 0 | inactive: 0 | 4 | 0 | 2 | 0 | 2 | 1 | 0 | 1 | 0 | 0 | 2 | 0
Cc1c(C)c(NCC(=O)N(C)C2CCN(Cc3ccc(C(N)=O)cc3)CC2)c(C)c(C)c1N (10 µM) | inactive: 0 | inactive: 0 | inactive: 0 | inactive: 0 | inactive: 0 | inactive: 0 | inactive: 0 | inactive: 0 | 0 | 0 | 0 | 0 | 0 | 0 | 0 | 0 | 0 | 0 | 0 | 0
Cc1nn(C)cc1-c1nc2c(N3CCN(Cc4ccc(Cl)cc4)CC3)c(Cl)cnc2[nH]1 (10 µM) | inactive: 0 | inactive: 0 | inactive: 0 | inactive: 0 | inactive: 0 | inactive: 0 | inactive: 0 | inactive: 0 | 0 | 0 | 0 | 0 | 0 | 0 | 0 | 0 | 0 | 0 | 0 | 0
COc1cc2ncnc(Nc3cccc(I)c3)c2cc1OC (2.5 µM) | inactive: 0 | inactive: 0 | inactive: 0 | inactive: 0 | inactive: 0 | inactive: 0 | inactive: 0 | inactive: 0 | 0 | 0 | 0 | 0 | 0 | 0 | 0 | 0 | 0 | 0 | 0 | 0
CCCCCC(=O)N[C@@H](Cc1ccc(O)cc1)C(=O)OC (10 µM) | inactive: 0 | inactive: 0 | inactive: 0 | inactive: 0 | inactive: 0 | inactive: 0 | inactive: 0 | inactive: 0 | 0 | 0 | 0 | 0 | 0 | 0 | 0 | 0 | 0 | 0 | 0 | 0
COc1cc2c(cc1Nc1ncc(C(N)=O)c(Nc3c(F)cccc3C(F)(F)F)n1)CN(C)CC2 (2.5 µM) | inactive: 0 | inactive: 0 | inactive: 0 | inactive: 0 | inactive: 0 | inactive: 0 | inactive: 0 | inactive: 0 | 0 | 0 | 0 | 0 | 0 | 0 | 0 | 1 | 0 | 0 | 0 | 0
NC(=O)c1cnc(-c2ccc(C3(N)CCC3)cc2)c(-c2ccccc2)c1 (10 µM) | inactive: 0 | inactive: 0 | inactive: 0 | inactive: 0 | inactive: 0 | inactive: 0 | inactive: 0 | inactive: 0 | 0 | 0 | 0 | 0 | 0 | 0 | 0 | 0 | 0 | 0 | 0 | 0
O=c1cc(-c2ccccc2)oc2cc(O[C@@H]3O[C@H](CO[C@@H]4O[C@H](CO)[C@@H](O)[C@H](O)[C@H]4O)[C@@H](O)[C@H](O)[C@H]3O)c(O)c(O)c12 [Oroxin B] (10 µM) | inactive: 0 | inactive: 0 | inactive: 0 | inactive: 0 | inactive: 0 | inactive: 0 | inactive: 0 | inactive: 0 | 0 | 0 | 0 | 0 | 0 | 0 | 0 | 0 | 0 | 0 | 0 | 0
O=C1NC(=O)/C(=C\c2c[nH]c(=O)c(-c3ccc(N4CCNCC4)nc3)c2)S1 [Protein kinase inhibitors 1 hydrochloride] (10 µM) | inactive: 0 | inactive: 0 | inactive: 0 | inactive: 0 | inactive: 0 | inactive: 0 | inactive: 0 | inactive: 0 | 0 | 0 | 0 | 0 | 0 | 0 | 0 | 0 | 0 | 0 | 0 | 0
COc1cc(N2CCOCC2)ccc1Nc1ncc(F)c(Nc2ccccc2NS(C)(=O)=O)n1 (10 µM) | inactive: 0 | inactive: 0 | inactive: 0 | inactive: 0 | inactive: 0 | inactive: 0 | inactive: 0 | inactive: 0 | 0 | 0 | 0 | 0 | 0 | 0 | 0 | 0 | 0 | 0 | 0 | 0
Cn1ncc(NC(=O)c2nc(-c3c(F)cccc3F)sc2N)c1N1CC[C@@H](N)[C@H](F)CC1 (10 µM) | inactive: 0 | inactive: 0 | inactive: 0 | inactive: 0 | inactive: 0 | inactive: 0 | inactive: 0 | inactive: 0 | 3 | 0 | 0 | 0 | 0 | 0 | 0 | 0 | 0 | 0 | 0 | 0

Some of the entries so far, as comma-separated lines:
SMILES,kinase-Nluc reporter destabilization hit call (STK38),kinase-Nluc reporter destabilization hit call (SYK),kinase-Nluc reporter destabilization hit call (TEC),kinase-Nluc reporter destabilization hit call (TYK2),kinase-Nluc reporter destabilization hit call (ULK3),kinase-Nluc reporter destabilization hit call (YES1),kinase-Nluc reporter destabilization hit call (ZAK),kinase-Nluc reporter destabilization hit call (ZAP70),number of time points (ABL1),number of time points (AKT1),number of time points (ALK),number of time points (ARAF),number of time points (AURKA),number of time points (AURKB),number of time points (AURKC),number of time points (BLK),number of time points (BMX),number of time points (BRAF),number of time points (BRAF_V600E),number of time points (BTK)
Nc1ncc(-c2ccnc(Nc3ccncc3)n2)c(CC2CC2)n1 (10 µM),inactive: 0,inactive: 0,inactive: 0,inactive: 0,inactive: 0,inactive: 0,inactive: 0,inactive: 0,4,0,2,0,2,1,0,1,0,0,2,0
Cc1c(C)c(NCC(=O)N(C)C2CCN(Cc3ccc(C(N)=O)cc3)CC2)c(C)c(C)c1N (10 µM),inactive: 0,inactive: 0,inactive: 0,inactive: 0,inactive: 0,inactive: 0,inactive: 0,inactive: 0,0,0,0,0,0,0,0,0,0,0,0,0
Cc1nn(C)cc1-c1nc2c(N3CCN(Cc4ccc(Cl)cc4)CC3)c(Cl)cnc2[nH]1 (10 µM),inactive: 0,inactive: 0,inactive: 0,inactive: 0,inactive: 0,inactive: 0,inactive: 0,inactive: 0,0,0,0,0,0,0,0,0,0,0,0,0
COc1cc2ncnc(Nc3cccc(I)c3)c2cc1OC (2.5 µM),inactive: 0,inactive: 0,inactive: 0,inactive: 0,inactive: 0,inactive: 0,inactive: 0,inactive: 0,0,0,0,0,0,0,0,0,0,0,0,0
CCCCCC(=O)N[C@@H](Cc1ccc(O)cc1)C(=O)OC (10 µM),inactive: 0,inactive: 0,inactive: 0,inactive: 0,inactive: 0,inactive: 0,inactive: 0,inactive: 0,0,0,0,0,0,0,0,0,0,0,0,0
COc1cc2c(cc1Nc1ncc(C(N)=O)c(Nc3c(F)cccc3C(F)(F)F)n1)CN(C)CC2 (2.5 µM),inactive: 0,inactive: 0,inactive: 0,inactive: 0,inactive: 0,inactive: 0,inactive: 0,inactive: 0,0,0,0,0,0,0,0,1,0,0,0,0
